Assay results reported in patent US10833345B2, “Materials for high-performance aqueous organic redox flow batteries” (UNIVERSITY OF SOUTHERN CALIFORNIA, priority 2016, dated 2020).

Tests used:
[1] = Cyclic voltammetry and redox cell states of AMBSA; assay type: physicochemical
[2] = Charge and discharge cycling of organic redox flow cells; settings: DHA negative electrolyte, AQDS positive electrolyte; 8 mA/cm^2
Text: In another embodiment, the effects of crossover can be mitigated by using a mixture of positive and negative electrolyte materials in equimolar quantities at both the electrodes. When such a mixture is charged only the positive electrolyte component will undergo oxidation reaction at the positive electrode and the negative electrolyte material will undergo reduction reactions at the negative electrode. Since the concentration of the redox active species is identical even if crossover occurs, the positive electrolyte material occurred to the negative electrolyte side this change in concentration will be balanced by back diffusion. Thus, there might be self-discharge but no permanent capacity loss or compositional change of the electrolyte. Any two redox couples that qualify as positive and negative electrolyte materials can be mixed in equimolar proportions and used as the electrolyte. We have shown the feasibility of rechargeability of this type of mixed materials using DMDHMS and AQDS (FIG. 8). Nearly 100% of the charge input was returned during discharge.
Based on the electrode potentials, the DHA can serve as the negative electrolyte and the AQDS can serve as the positive electrolyte. […] The cell was charged and discharged at 8 mA/cm^2. The value of cell voltage was consistent with that expected from the reduction potential of the redox couples. […]

| SMILES | Cell Voltage ([1]; Fully Charged, positive (BQS-AQS), negative (BQSH-AQSH)) | Cell Voltage ([1]; Fully Discharged, both electrodes (BQSH-AQS)) | charge voltages [2] | discharge voltages [2] |
| --- | --- | --- | --- | --- |
| O=C1c2ccccc2C(=O)c2cc(Cc3cc(O)cc(S(=O)(=O)O)c3O)ccc21 [AMBSA, 2-anthraquinonemethyl (p-benzoquinol sulfonic acid)] | 0.8-1.0 | 0.0 |  |  |
| O=C1c2cccc(O)c2C(=O)c2c(O)cccc21 [DHA, 1,8-dihydroxyanthraquinone] |  |  | about 0.4 V | about 0.2 V |
